From article PMC9548179
Where two headings read alike, the source gives them in different places. No constants are given. Whether binding was seen depends on the method and setting. Binding seen in cells or lysates may run through a third protein. Here binding means that the protein was enriched with, or labelled near, the bait; the list need not be complete.

The chains behind the UniProt entries cited, without tags or fusion partners. Residues count along the entry.
UniProt Q9UBS4, residues 23-358: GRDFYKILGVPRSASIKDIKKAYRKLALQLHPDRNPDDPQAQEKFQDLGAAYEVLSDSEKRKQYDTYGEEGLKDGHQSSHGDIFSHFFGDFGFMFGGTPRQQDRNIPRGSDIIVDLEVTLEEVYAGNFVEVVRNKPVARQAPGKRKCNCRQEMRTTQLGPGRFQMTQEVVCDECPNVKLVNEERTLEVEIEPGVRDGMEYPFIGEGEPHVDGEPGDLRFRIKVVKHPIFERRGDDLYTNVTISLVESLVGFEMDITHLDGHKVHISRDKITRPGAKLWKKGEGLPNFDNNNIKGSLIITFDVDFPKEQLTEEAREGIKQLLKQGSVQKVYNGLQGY
UniProt P05187, residues 23-506: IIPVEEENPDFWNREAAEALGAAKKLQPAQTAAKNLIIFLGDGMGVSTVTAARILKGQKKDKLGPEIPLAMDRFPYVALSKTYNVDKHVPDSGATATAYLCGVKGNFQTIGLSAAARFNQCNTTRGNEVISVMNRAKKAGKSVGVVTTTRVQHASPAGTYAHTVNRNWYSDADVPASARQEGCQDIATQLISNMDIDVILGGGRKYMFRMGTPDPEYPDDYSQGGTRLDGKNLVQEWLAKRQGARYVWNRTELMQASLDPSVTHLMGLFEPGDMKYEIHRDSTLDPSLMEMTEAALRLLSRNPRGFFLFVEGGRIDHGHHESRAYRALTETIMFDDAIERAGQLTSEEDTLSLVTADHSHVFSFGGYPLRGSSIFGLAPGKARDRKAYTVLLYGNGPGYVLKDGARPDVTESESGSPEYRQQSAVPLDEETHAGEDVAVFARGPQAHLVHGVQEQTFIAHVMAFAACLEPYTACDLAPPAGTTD
UniProt P08174, residues 35-353: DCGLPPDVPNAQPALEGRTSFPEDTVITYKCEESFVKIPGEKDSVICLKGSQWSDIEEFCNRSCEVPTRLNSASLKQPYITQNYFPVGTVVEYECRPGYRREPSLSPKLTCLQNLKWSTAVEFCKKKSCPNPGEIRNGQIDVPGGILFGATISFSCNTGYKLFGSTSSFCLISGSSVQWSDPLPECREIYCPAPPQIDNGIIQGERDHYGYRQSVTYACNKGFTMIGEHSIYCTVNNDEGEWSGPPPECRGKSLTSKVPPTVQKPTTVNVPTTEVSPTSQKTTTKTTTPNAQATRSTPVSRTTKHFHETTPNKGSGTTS
UniProt P06396, residues 28-782: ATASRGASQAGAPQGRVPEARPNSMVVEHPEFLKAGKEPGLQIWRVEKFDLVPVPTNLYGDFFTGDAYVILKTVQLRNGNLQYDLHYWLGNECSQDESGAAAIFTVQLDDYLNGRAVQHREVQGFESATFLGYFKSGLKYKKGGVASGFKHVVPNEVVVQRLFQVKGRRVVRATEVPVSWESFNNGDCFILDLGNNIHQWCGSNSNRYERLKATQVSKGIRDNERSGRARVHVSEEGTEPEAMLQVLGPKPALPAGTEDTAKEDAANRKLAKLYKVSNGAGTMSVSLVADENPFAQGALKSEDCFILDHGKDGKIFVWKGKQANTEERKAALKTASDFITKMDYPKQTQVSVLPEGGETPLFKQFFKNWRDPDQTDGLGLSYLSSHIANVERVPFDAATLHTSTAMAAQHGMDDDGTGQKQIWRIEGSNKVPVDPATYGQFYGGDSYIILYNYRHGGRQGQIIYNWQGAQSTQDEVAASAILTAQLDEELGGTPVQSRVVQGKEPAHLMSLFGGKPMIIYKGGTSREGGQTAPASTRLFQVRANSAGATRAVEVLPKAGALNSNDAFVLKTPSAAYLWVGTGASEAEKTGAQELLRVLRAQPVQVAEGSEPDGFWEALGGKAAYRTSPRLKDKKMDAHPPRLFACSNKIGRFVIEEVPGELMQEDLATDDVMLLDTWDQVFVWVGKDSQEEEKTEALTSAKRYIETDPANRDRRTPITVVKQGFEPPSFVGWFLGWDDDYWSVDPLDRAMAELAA
UniProt P11021, residues 19-654: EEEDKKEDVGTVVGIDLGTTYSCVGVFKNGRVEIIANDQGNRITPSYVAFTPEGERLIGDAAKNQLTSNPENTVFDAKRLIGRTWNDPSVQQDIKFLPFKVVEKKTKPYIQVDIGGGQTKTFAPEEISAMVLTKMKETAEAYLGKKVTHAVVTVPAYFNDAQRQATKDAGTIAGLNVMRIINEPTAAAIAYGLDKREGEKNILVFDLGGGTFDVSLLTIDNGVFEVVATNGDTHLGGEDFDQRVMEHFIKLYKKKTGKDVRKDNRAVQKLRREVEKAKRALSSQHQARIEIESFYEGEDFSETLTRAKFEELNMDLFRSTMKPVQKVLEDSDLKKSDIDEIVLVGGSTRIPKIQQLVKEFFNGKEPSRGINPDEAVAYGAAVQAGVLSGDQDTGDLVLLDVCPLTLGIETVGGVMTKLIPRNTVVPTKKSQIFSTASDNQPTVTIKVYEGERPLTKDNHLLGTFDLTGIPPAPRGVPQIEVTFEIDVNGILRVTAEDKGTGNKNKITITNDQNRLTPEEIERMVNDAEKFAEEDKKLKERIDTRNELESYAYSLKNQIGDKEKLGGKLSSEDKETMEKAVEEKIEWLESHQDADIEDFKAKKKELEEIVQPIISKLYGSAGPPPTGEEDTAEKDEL

B1: CGN (protein, UniProt Q9P2M7 1-1203)
chain: MEQAPNMAEPRGPVDHGVQIRFITEPVSGAEMGTLRRGGRRPAKDARASTYGVAVRVQGIAGQPFVVLNSGEKGGDSFGVQIKGANDQGASGALSSDLELPENPYSQVKGFPAPSQSSTSDEEPGAYWNGKLLRSHSQASLAGPGPVDPSNRSNSMLELAPKVASPGSTIDTAPLSSVDSLINKFDSQLGGQARGRTGRRTRMLPPEQRKRSKSLDSRLPRDTFEERERQSTNHWTSSTKYDNHVGTSKQPAQSQNLSPLSGFSRSRQTQDWVLQSFEEPRRSAQDPTMLQFKSTPDLLRDQQEAAPPGSVDHMKATIYGILREGSSESETSVRRKVSLVLEKMQPLVMVSSGSTKAVAGQGELTRKVEELQRKLDEEVKKRQKLEPSQVGLERQLEEKTEECSRLQELLERRKGEAQQSNKELQNMKRLLDQGEDLRHGLETQVMELQNKLKHVQGPEPAKEVLLKDLLETRELLEEVLEGKQRVEEQLRLRERELTALKGALKEEVASRDQEVEHVRQQYQRDTEQLRRSMQDATQDHAVLEAERQKMSALVRGLQRELEETSEETGHWQSMFQKNKEDLRATKQELLQLRMEKEEMEEELGEKIEVLQRELEQARASAGDTRQVEVLKKELLRTQEELKELQAERQSQEVAGRHRDRELEKQLAVLRVEADRGRELEEQNLQLQKTLQQLRQDCEEASKAKMVAEAEATVLGQRRAAVETTLRETQEENDEFRRRILGLEQQLKETRGLVDGGEAVEARLRDKLQRLEAEKQQLEEALNASQEEEGSLAAAKRALEARLEEAQRGLARLGQEQQTLNRALEEEGKQREVLRRGKAELEEQKRLLDRTVDRLNKELEKIGEDSKQALQQLQAQLEDYKEKARREVADAQRQAKDWASEAEKTSGGLSRLQDEIQRLRQALQASQAERDTARLDKELLAQRLQGLEQEAENKKRSQDDRARQLKGLEEKVSRLETELDEEKNTVELLTDRVNRGRDQVDQLRTELMQERSARQDLECDKISLERQNKDLKTRLASSEGFQKPSASLSQLESQNQLLQERLQAEEREKTVLQSTNRKLERKVKELSIQIEDERQHVNDQKDQLSLRVKALKRQVDEAEEEIERLDGLRKKAQREVEEQHEVNEQLQARIKSLEKDSWRKASRSAAESALKNEGLSSDEEFDSVYDPSSIASLLTESNLQTSSC

Key:
[1] = biological target: DnaJ Heat Shock Protein Family (Hsp40) Member B11 (human (endogenous in pancreatic cancer cells)) (UniProt Q9UBS4); assay: affinity purification with mass spectrometry; cells lysed in RIPA buffer with protease and phosphatase inhibitors; lysate incubated with anti-DNAJB11 antibody overnight at 4 °C, protein A agarose 4 h, washed thrice with lysis buffer; eluate on SDS-PAGE, then LC-MS/MS; IgG as negative control
[2] = biological target: DnaJ Heat Shock Protein Family (Hsp40) Member B11 (human (endogenous in pancreatic cancer cells)) (UniProt Q9UBS4); assay: as above; remark: listed apart in the source

| Molecule | binding [1] | binding [2] |
| --- | --- | --- |
| ALPP (from UniProt P05187 23-506) | binds |  |
| CD55 (from UniProt P08174 35-353) | binds |  |
| EGFR (from UniProt P00533 25-1210) (receptor) | binds |  |
| GSN (from UniProt P06396 28-782) | binds |  |
| Heat Shock Protein Family A (Hsp70) Member 5 (from UniProt P11021 19-654) | binds |  |
| B1 |  | binds |
